# Measurements taken from article PMC8384837.
# Changes are numbered by the printed parent chain. Some of the results follow.
# Tests used:
# Settings in all cases: yeast three-hybrid, YBZ-1, SC-Leu-His + 0.5 mM 3-AT, 4 days
# [1] = target: T1, PUM1 PUF domain R3-FRA C935F + Q939A (Homo sapiens) (UniProt Q14671)
# T1 sequence: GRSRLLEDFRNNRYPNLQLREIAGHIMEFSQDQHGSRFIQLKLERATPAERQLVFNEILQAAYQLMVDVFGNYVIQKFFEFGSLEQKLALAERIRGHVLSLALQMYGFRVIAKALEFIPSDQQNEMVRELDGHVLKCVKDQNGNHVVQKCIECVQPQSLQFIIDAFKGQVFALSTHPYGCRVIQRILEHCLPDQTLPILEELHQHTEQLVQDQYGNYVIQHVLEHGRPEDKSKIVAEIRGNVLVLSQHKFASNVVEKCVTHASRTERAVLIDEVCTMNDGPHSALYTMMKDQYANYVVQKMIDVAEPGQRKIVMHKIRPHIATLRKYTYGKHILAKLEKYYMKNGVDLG
# [2] = target: T2, PUM1 PUF domain R3-IRG C935I + Q939G (Homo sapiens) (UniProt Q14671)
# T2 sequence: T1 sequence with F108I, A112G
# [3] = target: T3, PUM1 PUF domain R3-LRL C935L + Q939L (Homo sapiens) (UniProt Q14671)
# T3 sequence: T1 sequence with F108L, A112L
# [4] = target: T4, PUM1 PUF domain R3-LRR C935L + Q939R (Homo sapiens) (UniProt Q14671)
# T4 sequence: T1 sequence with F108L, A112R
# [5] = target: T5, PUM1 PUF domain R3-LRT C935L + Q939T (Homo sapiens) (UniProt Q14671)
# T5 sequence: T1 sequence with F108L, A112T
# [6] = target: T6, PUM1 PUF domain R3-LSA C935L + R936S + Q939A (Homo sapiens) (UniProt Q14671)
# T6 sequence: T1 sequence with F108L, R109S
# [7] = target: T7, PUM1 PUF domain R3-LSR C935L + R936S + Q939R (Homo sapiens) (UniProt Q14671)
# T7 sequence: T1 sequence with F108L, R109S, A112R
# [8] = target: T8, PUM1 PUF domain R3-RAF C935R + R936A + Q939F (Homo sapiens) (UniProt Q14671)
# T8 sequence: T1 sequence with F108R, R109A, A112F
# [9] = target: T9, PUM1 PUF domain R3-RGR C935R + R936G + Q939R (Homo sapiens) (UniProt Q14671)
# T9 sequence: T1 sequence with F108R, R109G, A112R
# [10] = target: T10, PUM1 PUF domain R3-RPD C935R + R936P + Q939D (Homo sapiens) (UniProt Q14671)
# T10 sequence: T1 sequence with F108R, R109P, A112D
# [11] = target: T11, PUM1 PUF domain R3-RRG C935R + Q939G (Homo sapiens) (UniProt Q14671)
# T11 sequence: T1 sequence with F108R, A112G
# [12] = target: T12, PUM1 PUF domain R3-RRS C935R + Q939S (Homo sapiens) (UniProt Q14671)
# T12 sequence: T1 sequence with F108R, A112S
# [13] = target: T13, PUM1 PUF domain R3-RSG C935R + R936S + Q939G (Homo sapiens) (UniProt Q14671)
# T13 sequence: T1 sequence with F108R, R109S, A112G
# [14] = target: T14, PUM1 PUF domain R3-RSH C935R + R936S + Q939H (Homo sapiens) (UniProt Q14671)
# T14 sequence: T1 sequence with F108R, R109S, A112H
# [15] = target: T15, PUM1 PUF domain R3-RSR C935R + R936S + Q939R (Homo sapiens) (UniProt Q14671)
# T15 sequence: T1 sequence with F108R, R109S, A112R
# [16] = target: T16, PUM1 PUF domain R3-RSS C935R + R936S + Q939S (Homo sapiens) (UniProt Q14671)
# T16 sequence: T1 sequence with F108R, R109S, A112S
# [17] = target: T17, PUM1 PUF domain R3-RST C935R + R936S + Q939T (Homo sapiens) (UniProt Q14671)
# T17 sequence: T1 sequence with F108R, R109S, A112T
# [18] = target: T18, PUM1 PUF domain R3-WFS C935W + R936F + Q939S (Homo sapiens) (UniProt Q14671)
# T18 sequence: T1 sequence with F108W, R109F, A112S
# [19] = target: T19, PUM1 PUF domain R3-YCG C935Y + R936C + Q939G (Homo sapiens) (UniProt Q14671)
# T19 sequence: T1 sequence with F108Y, R109C, A112G
# [20] = target: T20, PUM1 PUF domain R3-YRG C935Y + Q939G (Homo sapiens) (UniProt Q14671)
# T20 sequence: T1 sequence with F108Y, A112G
sequence,measurement,setting,value
GGCUAGAACUAGUGGAUCCCCCGGCGCCCGGCGGCUCGAGCCCGGGUAAGUGUAAAUAGUCUGCAUGCCGCCGGGCGCCAUGCCUGCAGGUCGACUCUAGAAAACAUG,binding signal (log2 enrichment (interaction score)),[1],-1.54
same,binding signal (log2 enrichment (interaction score)),[2],-1.36
same,binding signal (log2 enrichment (interaction score)),[3],-1.33
same,binding signal (log2 enrichment (interaction score)),[4],-1.69
same,binding signal (log2 enrichment (interaction score)),[5],-1.93
same,binding signal (log2 enrichment (interaction score)),[6],-1.4
same,binding signal (log2 enrichment (interaction score)),[7],-1.54
same,binding signal (log2 enrichment (interaction score)),[8],-1.72
same,binding signal (log2 enrichment (interaction score)),[9],-1.7
same,binding signal (log2 enrichment (interaction score)),[10],-1.74
same,binding signal (log2 enrichment (interaction score)),[11],-1.42
same,binding signal (log2 enrichment (interaction score)),[12],-1.65
same,binding signal (log2 enrichment (interaction score)),[13],-1.65
same,binding signal (log2 enrichment (interaction score)),[14],-1.59
same,binding signal (log2 enrichment (interaction score)),[15],-1.71
same,binding signal (log2 enrichment (interaction score)),[16],-1.31
same,binding signal (log2 enrichment (interaction score)),[17],-1.76
same,binding signal (log2 enrichment (interaction score)),[18],-1.74
same,binding signal (log2 enrichment (interaction score)),[19],-1.75
same,binding signal (log2 enrichment (interaction score)),[20],-1.36

# 2 entries drawn at random from those above, as already listed:
sequence,measurement,setting,value
GGCUAGAACUAGUGGAUCCCCCGGCGCCCGGCGGCUCGAGCCCGGGUAAGUGUAAAUAGUCUGCAUGCCGCCGGGCGCCAUGCCUGCAGGUCGACUCUAGAAAACAUG,binding signal (log2 enrichment (interaction score)),[6],-1.4
same,binding signal (log2 enrichment (interaction score)),[7],-1.54
